Here are results for 37 targets from the supplement of paper PMC12819154, “High-throughput peptide-centric local stability assay extends protein–ligand identification to membrane proteins, tissues and bacteria” (Nature Structural & Molecular Biology, 2025).

Protein sequences, listed by entry. Tags and fused reporters are not part of them. Lines headed by an entry give the natural chain unless they say otherwise; changes in a name come on top.
UniProt Q3UQS8: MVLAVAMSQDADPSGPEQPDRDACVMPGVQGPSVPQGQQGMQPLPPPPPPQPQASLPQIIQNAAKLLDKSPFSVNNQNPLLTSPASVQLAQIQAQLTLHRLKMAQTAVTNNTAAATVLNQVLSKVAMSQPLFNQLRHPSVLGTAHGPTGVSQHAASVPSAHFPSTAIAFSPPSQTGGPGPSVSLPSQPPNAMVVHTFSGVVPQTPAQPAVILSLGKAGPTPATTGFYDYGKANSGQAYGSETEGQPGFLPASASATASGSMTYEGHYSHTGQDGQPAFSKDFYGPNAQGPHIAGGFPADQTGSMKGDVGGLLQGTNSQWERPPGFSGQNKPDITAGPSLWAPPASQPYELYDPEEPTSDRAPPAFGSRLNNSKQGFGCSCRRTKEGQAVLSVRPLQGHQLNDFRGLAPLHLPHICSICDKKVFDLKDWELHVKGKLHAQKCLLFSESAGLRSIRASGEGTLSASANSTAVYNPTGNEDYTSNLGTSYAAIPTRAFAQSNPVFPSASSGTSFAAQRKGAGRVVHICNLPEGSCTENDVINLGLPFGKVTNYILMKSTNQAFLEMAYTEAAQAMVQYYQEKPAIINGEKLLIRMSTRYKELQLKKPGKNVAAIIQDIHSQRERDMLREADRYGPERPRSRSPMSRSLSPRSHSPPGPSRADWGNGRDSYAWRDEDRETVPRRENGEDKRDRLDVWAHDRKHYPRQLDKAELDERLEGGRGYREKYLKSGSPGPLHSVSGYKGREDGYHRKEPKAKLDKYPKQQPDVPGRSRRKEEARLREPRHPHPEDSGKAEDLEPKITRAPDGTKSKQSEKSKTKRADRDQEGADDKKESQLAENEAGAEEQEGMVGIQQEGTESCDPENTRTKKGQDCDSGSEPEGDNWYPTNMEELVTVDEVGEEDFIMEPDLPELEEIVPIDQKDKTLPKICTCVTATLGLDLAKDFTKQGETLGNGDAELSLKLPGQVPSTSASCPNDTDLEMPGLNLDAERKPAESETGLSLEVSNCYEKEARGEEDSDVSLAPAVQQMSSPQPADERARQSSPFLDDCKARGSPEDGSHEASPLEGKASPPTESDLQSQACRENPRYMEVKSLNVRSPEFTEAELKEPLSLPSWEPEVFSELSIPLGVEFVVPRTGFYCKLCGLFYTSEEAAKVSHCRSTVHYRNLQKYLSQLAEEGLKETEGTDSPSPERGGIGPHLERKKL
UniProt Q3UJV1: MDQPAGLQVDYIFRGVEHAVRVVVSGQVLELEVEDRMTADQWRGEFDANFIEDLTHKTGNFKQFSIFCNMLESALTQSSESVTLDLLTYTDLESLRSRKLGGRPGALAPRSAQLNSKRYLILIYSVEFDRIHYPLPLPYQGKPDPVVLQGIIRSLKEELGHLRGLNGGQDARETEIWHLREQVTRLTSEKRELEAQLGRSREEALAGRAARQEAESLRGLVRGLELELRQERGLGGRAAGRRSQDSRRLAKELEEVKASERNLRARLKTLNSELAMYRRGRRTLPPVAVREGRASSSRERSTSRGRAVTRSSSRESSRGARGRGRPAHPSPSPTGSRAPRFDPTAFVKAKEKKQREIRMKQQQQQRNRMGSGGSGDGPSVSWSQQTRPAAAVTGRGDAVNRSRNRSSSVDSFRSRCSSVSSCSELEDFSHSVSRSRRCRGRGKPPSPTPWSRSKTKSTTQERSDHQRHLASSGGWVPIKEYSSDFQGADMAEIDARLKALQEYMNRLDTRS
UniProt Q4V9W2: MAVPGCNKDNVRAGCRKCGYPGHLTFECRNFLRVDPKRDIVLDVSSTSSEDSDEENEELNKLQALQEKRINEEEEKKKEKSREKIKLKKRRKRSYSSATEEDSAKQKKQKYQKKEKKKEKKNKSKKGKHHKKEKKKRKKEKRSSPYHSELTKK
UniProt Q3UGS4: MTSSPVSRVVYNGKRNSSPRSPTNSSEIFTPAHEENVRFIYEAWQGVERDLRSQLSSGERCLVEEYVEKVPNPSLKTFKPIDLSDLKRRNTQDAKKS
UniProt Q3UIK4: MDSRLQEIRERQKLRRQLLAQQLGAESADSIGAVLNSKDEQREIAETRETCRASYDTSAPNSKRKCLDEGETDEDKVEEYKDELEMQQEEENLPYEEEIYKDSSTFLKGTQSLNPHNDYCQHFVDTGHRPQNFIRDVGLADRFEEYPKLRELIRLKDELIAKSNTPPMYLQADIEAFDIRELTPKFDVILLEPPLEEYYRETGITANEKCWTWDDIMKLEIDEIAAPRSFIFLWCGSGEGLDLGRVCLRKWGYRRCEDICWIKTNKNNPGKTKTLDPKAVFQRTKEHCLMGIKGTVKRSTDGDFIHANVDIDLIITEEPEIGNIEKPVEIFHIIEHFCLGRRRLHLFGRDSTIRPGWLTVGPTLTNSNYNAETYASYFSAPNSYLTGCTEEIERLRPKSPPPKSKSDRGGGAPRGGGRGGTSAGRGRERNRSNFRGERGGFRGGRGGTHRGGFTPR
UniProt Q3UHX9: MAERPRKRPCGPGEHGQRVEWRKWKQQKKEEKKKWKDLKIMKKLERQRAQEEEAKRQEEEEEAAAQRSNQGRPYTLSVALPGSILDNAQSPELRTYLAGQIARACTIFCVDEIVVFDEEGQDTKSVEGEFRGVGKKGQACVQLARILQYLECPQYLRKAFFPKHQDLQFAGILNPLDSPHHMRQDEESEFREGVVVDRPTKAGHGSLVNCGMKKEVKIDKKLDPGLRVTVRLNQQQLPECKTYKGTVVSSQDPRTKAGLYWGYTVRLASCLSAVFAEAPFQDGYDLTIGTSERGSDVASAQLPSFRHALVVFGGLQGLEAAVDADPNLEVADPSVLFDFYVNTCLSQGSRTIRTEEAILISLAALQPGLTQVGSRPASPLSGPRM
UniProt Q3UHG7: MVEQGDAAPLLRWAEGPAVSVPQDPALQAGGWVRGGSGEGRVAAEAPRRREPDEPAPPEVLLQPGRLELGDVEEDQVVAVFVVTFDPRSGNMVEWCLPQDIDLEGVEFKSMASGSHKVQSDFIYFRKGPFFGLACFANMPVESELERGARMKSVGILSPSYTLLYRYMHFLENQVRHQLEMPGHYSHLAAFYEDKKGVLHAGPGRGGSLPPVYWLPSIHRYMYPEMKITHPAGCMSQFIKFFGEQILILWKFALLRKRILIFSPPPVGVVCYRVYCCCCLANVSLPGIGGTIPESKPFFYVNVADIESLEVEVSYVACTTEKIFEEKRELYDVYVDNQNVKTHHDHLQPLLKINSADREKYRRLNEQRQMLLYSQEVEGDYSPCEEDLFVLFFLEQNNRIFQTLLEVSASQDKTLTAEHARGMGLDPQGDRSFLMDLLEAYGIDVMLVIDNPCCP
UniProt Q3UK78: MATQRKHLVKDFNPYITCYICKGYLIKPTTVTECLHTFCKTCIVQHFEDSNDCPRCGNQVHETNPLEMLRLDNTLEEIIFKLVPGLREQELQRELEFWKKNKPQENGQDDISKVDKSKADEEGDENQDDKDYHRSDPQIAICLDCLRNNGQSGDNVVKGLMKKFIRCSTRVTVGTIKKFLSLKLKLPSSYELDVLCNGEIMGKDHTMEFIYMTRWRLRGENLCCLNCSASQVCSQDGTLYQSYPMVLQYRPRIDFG
UniProt Q3UM45: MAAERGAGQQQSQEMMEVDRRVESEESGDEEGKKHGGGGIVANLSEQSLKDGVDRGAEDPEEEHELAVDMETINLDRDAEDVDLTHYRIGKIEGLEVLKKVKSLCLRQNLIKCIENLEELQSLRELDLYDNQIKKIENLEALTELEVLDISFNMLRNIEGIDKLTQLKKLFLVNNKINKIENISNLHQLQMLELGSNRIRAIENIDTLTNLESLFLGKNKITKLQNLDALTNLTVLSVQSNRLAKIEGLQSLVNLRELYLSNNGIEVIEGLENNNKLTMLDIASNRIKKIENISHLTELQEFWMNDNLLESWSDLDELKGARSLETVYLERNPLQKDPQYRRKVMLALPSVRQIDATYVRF
UniProt Q497H0: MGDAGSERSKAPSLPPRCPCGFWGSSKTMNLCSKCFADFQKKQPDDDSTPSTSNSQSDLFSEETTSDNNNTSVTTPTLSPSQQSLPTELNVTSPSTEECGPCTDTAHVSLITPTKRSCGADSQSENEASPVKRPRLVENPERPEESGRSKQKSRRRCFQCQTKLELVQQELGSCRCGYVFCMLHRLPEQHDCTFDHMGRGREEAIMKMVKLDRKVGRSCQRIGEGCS
UniProt Q58A65: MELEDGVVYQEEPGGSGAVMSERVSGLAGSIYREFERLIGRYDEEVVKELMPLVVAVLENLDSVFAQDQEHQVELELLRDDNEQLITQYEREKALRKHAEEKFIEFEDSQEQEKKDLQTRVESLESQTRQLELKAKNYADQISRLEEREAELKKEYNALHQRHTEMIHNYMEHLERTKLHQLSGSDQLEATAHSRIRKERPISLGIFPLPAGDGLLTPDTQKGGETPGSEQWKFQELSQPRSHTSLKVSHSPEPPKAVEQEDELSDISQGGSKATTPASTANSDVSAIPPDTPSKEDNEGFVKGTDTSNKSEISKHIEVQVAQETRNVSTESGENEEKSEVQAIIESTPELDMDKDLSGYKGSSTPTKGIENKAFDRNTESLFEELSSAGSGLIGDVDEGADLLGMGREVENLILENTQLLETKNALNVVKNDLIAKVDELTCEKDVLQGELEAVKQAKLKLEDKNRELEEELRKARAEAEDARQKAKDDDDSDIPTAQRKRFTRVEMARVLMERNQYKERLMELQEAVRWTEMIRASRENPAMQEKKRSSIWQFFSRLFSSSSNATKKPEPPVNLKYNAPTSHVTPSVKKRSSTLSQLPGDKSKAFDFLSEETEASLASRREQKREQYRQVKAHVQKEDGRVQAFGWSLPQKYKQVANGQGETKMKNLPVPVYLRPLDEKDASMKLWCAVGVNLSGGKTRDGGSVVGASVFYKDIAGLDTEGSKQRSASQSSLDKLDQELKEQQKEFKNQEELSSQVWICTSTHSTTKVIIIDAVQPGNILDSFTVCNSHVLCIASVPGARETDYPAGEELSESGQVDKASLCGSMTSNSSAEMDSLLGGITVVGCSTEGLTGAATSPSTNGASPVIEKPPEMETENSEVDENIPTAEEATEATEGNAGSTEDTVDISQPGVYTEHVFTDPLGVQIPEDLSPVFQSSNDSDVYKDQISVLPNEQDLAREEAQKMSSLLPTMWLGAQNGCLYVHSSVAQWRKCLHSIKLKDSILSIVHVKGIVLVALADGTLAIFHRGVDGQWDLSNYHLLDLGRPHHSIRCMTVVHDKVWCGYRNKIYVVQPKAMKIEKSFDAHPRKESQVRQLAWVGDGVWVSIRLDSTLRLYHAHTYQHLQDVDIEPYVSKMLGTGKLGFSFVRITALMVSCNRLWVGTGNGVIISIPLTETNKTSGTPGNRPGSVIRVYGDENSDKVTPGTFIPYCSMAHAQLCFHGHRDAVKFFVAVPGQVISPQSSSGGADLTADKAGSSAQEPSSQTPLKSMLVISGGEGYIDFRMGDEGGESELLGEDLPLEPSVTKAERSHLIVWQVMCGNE
UniProt Q3UIL6: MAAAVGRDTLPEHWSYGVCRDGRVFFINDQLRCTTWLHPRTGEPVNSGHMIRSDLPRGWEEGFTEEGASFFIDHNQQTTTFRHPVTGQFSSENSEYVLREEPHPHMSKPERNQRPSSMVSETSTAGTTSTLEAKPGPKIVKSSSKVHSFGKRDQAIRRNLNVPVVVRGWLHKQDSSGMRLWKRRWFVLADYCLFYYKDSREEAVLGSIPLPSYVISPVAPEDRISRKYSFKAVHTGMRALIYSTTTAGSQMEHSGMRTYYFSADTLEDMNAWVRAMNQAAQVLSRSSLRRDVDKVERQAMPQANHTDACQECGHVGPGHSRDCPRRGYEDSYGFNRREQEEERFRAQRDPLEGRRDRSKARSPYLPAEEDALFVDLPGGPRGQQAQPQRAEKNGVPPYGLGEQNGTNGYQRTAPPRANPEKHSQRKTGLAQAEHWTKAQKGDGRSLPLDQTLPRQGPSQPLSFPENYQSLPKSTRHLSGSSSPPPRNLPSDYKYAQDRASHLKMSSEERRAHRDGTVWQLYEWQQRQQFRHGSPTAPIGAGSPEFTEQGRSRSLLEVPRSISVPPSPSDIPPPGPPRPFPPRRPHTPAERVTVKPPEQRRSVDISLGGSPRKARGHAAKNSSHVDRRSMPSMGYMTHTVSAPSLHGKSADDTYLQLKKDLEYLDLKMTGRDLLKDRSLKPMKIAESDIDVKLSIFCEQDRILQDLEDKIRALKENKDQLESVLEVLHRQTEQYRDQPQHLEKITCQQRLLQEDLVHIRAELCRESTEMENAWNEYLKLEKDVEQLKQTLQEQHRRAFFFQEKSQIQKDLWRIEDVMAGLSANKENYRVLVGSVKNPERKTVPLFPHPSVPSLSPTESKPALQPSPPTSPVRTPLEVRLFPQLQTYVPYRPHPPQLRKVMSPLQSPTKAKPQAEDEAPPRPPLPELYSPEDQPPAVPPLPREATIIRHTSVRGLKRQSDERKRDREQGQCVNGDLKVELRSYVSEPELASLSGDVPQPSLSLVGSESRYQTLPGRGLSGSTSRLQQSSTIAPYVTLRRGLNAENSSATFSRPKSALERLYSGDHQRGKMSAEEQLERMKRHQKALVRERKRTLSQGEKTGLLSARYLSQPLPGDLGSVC

This is one part of the list. Most entries show no effect beyond the scatter of the controls.

Compound in this test: CN[C@@H]1C[C@H]2O[C@@](C)([C@@H]1OC)n1c3ccccc3c3c4c(c5c6ccccc6n2c5c31)C(=O)NC4 [staurosporine]
In words: log2 fold change of tryptic peptide abundance, ligand vs vehicle (limited proteolysis) (log2 ratio); higher = more trypsin-susceptible (destabilized). The settings on record: ligand concentration: 20 uM; sample: mouse liver crude lysate; replicate design: treated separately.
Turning to “UniProt Q3US17 (peptide sequence: RQPSPAAPAAPHRPK, peptide start residue: 226)”, the log2 fold change came out at 0.41.

As to “UniProt Q3UE37 (peptide sequence: DRLHLQGQTMQDPFGEKR, peptide start residue: 290)”, the log2 fold change was -0.549.

Consider “UniProt Q3UFY0 (peptide sequence: AEAEGPHR, peptide start residue: 10)”, for which the log2 fold change turned out to be 0.943.

Consider “UniProt Q3UQS8 (peptide sequence: GSPEDGSHEASPLEGK, peptide start residue: 1048)”, for which the log2 fold change is -0.781.

With “UniProt Q3UJV1 (peptide sequence: FDPTAFVK, peptide start residue: 341)”, the log2 fold change was 0.265.

With “UniProt Q5BLK4 (peptide sequence: YTEKEVSTKEDK, peptide start residue: 1394)”, the log2 fold change came to 0.517.

Consider “UniProt Q3V0K9 (peptide sequence: AYFHLLNQIAPK, peptide start residue: 301)”, for which the log2 fold change was -0.445.

Consider “UniProt Q4V9W2 (peptide sequence: KCGYPGHLTFECR, peptide start residue: 17)”, for which the log2 fold change is -0.349.

Turning to “UniProt Q3UHF3 (peptide sequence: VKEYLVETSLR, peptide start residue: 219)”, the log2 fold change amounted to 0.406.

“UniProt Q3UMT1 (peptide sequence: ALNGVSSPVSSNPK, peptide start residue: 397)”: the log2 fold change was 0.177.

In the case of “UniProt Q3UGS4 (peptide sequence: TFKPIDLSDLK, peptide start residue: 77)”, the log2 fold change was found to be 0.191.

Consider “UniProt Q3UIK4 (peptide sequence: ASYDTSAPNSK, peptide start residue: 53)”, for which the log2 fold change worked out at 0.158.

Consider “UniProt Q3UZ09 (peptide sequence: EACEAWLHQR, peptide start residue: 395)”, for which the log2 fold change worked out at 0.162.

In the case of “UniProt Q501J7 (peptide sequence: YRDEEEDDDDDESHQSALANR, peptide start residue: 513)”, the log2 fold change worked out at 0.693.

On to “UniProt Q505B7 (peptide sequence: DKYPPVNR, peptide start residue: 22)”, for which the log2 fold change turned out to be 0.112.

Turning to “UniProt Q3UHX9 (peptide sequence: TYLAGQIAR, peptide start residue: 95)”, the log2 fold change was -0.285.

For the target “UniProt Q3UF25 (peptide sequence: KHRFGLPV, peptide start residue: 281)”, the log2 fold change came out at 0.00263.

As to “UniProt Q571H0 (peptide sequence: TKDLHVLMDHLPNTLR, peptide start residue: 1332)”, the log2 fold change was -0.433.

Consider “UniProt Q4FZG9 (peptide sequence: FLAVSTDYKK, peptide start residue: 70)”, for which the log2 fold change came out at 0.413.

Regarding “UniProt Q3UFK8 (peptide sequence: IQHLSTIDYVEDGK, peptide start residue: 415)”, the log2 fold change was -0.169.

“UniProt Q3UTJ2 (peptide sequence: GAEDYPDPPLPHSYSSDR, peptide start residue: 1083)”: the log2 fold change is -0.211.

For the target “UniProt Q3UYC0 (peptide sequence: GGVGAPGSPSTPPTR, peptide start residue: 213)”, the log2 fold change came out at 0.02.

“UniProt Q3UHG7 (peptide sequence: GGSLPPVYWLPSIHR, peptide start residue: 206)”: the log2 fold change was -0.352.

Turning to “UniProt Q3UK78 (peptide sequence: NKPQENGQDDISKVDK, peptide start residue: 101)”, the log2 fold change was found to be 0.312.

Take “UniProt Q3ZT31 (peptide sequence: QALSSIQNAPKPDKK, peptide start residue: 460)”: the log2 fold change was -0.578.

Take “UniProt Q571B6 (peptide sequence: KVETPTLPHPGTSVNEQVLAAIR, peptide start residue: 715)”: the log2 fold change is -0.259.

As for “UniProt Q3UM45 (peptide sequence: LTMLDIASNR, peptide start residue: 277)”, the log2 fold change was -0.503.

“UniProt Q497H0 (peptide sequence: LVENPERPEESGR, peptide start residue: 136)”: the log2 fold change is 0.233.

On to “UniProt Q3UHX2 (peptide sequence: VTQLDLDGPKELSR, peptide start residue: 96)”, for which the log2 fold change was -0.292.

With “UniProt Q3UN04 (peptide sequence: DQQGPHTHQCLSLTLLNLLK, peptide start residue: 106)”, the log2 fold change stood at 0.768.

“UniProt Q3UPH1 (peptide sequence: TKHSVESMITTLDPGMAPYIK, peptide start residue: 231)”: the log2 fold change was -0.265.

For the target “UniProt Q3UTQ7 (peptide sequence: GMLVNHLSK, peptide start residue: 730)”, the log2 fold change amounted to 0.134.

As for “UniProt Q58A65 (peptide sequence: AKNYADQISR, peptide start residue: 135)”, the log2 fold change turned out to be 0.239.

Take “UniProt Q3U9F6 (peptide sequence: VQEQMANCPK, peptide start residue: 120)”: the log2 fold change is 0.245.

Regarding “UniProt Q3UZ01 (peptide sequence: LDDTVENDKEKK, peptide start residue: 121)”, the log2 fold change was 0.605.

As to “UniProt Q3UIL6 (peptide sequence: AQRDPLEGR, peptide start residue: 346)”, the log2 fold change was -0.53.

Consider “UniProt Q3UHH2 (peptide sequence: KGEQPLLLTNAELK, peptide start residue: 649)”, for which the log2 fold change turned out to be 0.104.
